From patent US7326710B2, “Aralkyl formyl-alkyl piperazine derivatives and their uses as a cerebral nerve protective agent” (Shanghai Institute of Pharmaceutical Industry, priority 2002, dated 2008)

Tests used:
Type in all cases: in vivo
[1] = system: focal cerebral ischemia in rats; test: Focal brain injury, occlusion of MCA induced by photochemical reaction; details: 2 mg/kg
Method: a. Focal brain injury caused by photochemical induction of occlusion of the artery:
The percentage of infarction was lowered by 52% at 24 hours after operation.

[2] = system: focal cerebral ischemia in rats; test: Focal cerebral ischemia in rats by occlusion of middle cerebral artery (MCA); details: 20 mg/kg p.o.
Method: The focal ischemia rat model by occlusion of middle cerebral artery (MCA) was used to determine the protective effects of the compounds on focal cerebral ischemia. The infarct size after focal cerebral ischemia and the weight percentage of cerebral hemisphere were calculated to evaluate the compounds' effects on focal cerebral ischemia.

[3] = system: focal cerebral ischemia in rats; test: Focal cerebral infarction, electrical coagulation to occlude MCA
Method: a. The Focal Cerebral-Infarction of Using Electrical Coagulation to Occlude MCA:
For the 5 mg/kg group, the percentage of the rat's infarct size was decreased, but the difference is not significant (p=0.098). The effect is not significant for the Nimodipine mg/kg.

SMILES: O=c1[nH]c2cc(Cl)c(Cl)c([N+](=O)[O-])c2[nH]c1=O [ACEA-1021, reference compound]
- Weight of right hemisphere [1]: 0.70 ± 0.01 g

SMILES: O=C(CN1CCN(CC=Cc2ccccc2)CC1)NCc1ccccc1 [IV-21, N1-[2-(benzylamino)-2-oxo-ethyl]-N^4-cinnamyl piperazine]
- Right hemisphere-Weight [2]: 0.76 ± 0.02 g

SMILES: O=C(CN1CCN(CC(=O)c2ccccc2)CC1)NCc1ccccc1 [IV-23, N^1-phenacyl-N^4-[2-(benzylamino)-2-oxo-ethyl] piperazine]
- Right hemisphere-Weight [2]: 0.737 ± 0.029 g
- The weight of the right cerebral hemisphere ([3]; High-dose (20 mg/kg)): 0.73 ± 0.02 g
- The weight of the right cerebral hemisphere ([3]; Low-dose (5 mg/kg)): 0.73 ± 0.01 g
- The weight of the right cerebral hemisphere ([3]; middle-dose (10 mg/kg)): 0.73 ± 0.01 g
- Weight of right hemisphere [1]: 0.68 ± 0.01 g

SMILES: O=C(CN1CCN(S(=O)(=O)Cc2ccc(F)cc2F)CC1)c1ccccc1 [IV-22, N^1-phenacyl-N^4-(2,4-difluorobenzylsulfonyl) piperazine]
- Right hemisphere-Weight [2]: 0.73 ± 0.01 g

SMILES: COc1ccc2cc(C(=O)C(C)N3CCN(CC(=O)c4ccccc4)CC3)ccc2c1Cl (stereo not drawn) [IV-20, N^1-phenacyl-N^4-[1-(5-chloro-6-methoxy-2-naphthoyl)ethyl]piperazine]
- Right hemisphere-Weight [2]: 0.74 ± 0.01 g
